PubChem BioAssay AID1224826, NIAID, 2016
This is a random part of about 17,000 reagents. Of all reagents, about 1,110 (6.6%) got an active call. 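Active means lowered or raised reporter signal; replicate intensities are raw and not normalised per plate.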 Some reagents were tested in more than one well and are listed for each. Further read-outs or replicates are left out here.

Purpose: 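Knock-downs that raise or lower Tnf reporter signal after endotoxin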 (primary screen)
Cells: RAW264.7 G9 macrophages from mouse bearing reporters for p65 (GFP) and the Tnf promoter (mCherry)
Reagents: siRNA pool against mouse genes, 100 nM
Time to read-out: 16 h of LPS stimulation, after 2 days of siRNA transfection
Conditions: bacterial lipopolysaccharide (Salmonella minnesota R595), 10 ng/ml
Read-out: 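Imaged Tnf reporter mCherry in nuclei, minus background, normalised per plate to the median and expressed as robust z-scores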
Scale: Tnf reporter robust z-score: higher = stronger Tnf promoter reporter signal after LPS
Hit rule: 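a well counts as active at a score of -1.3 or below (Tlr4 knock-down control median) or above 3 (raised signal); controls and wells holding fewer than 50 cells are excluded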
Meaning of the calls: active = Tnf reporter clearly lowered or raised; inactive = no clear change in Tnf reporter

gene symbol | PubChem SID | Tnf reporter robust z-score | fewer than 50 cells in well | Outcome
Tmem59l (transmembrane protein 59-like) | SID315473320 | – | fewer than 50 cells per well; well left out of calls | inactive
Osgin2 (oxidative stress induced growth inhibitor family member 2) | SID315477582 | -1.07 | enough cells in well | inactive
Rnasek (ribonuclease, RNase K) | SID315471029 | 1.21 | enough cells in well | inactive
Or2ag15 (olfactory receptor family 2 subfamily AG member 15) | SID315480255 | 2.15 | enough cells in well | inactive
Or1ab2 (olfactory receptor family 1 subfamily AB member 2) | SID315480025 | -0.24 | enough cells in well | inactive
Nlrp9c (NLR family, pyrin domain containing 9C) | SID315481599 | 0.03 | enough cells in well | inactive
Wdr20rt (WD repeat domain 20, retrogene) | SID315474161 | 1.87 | enough cells in well | inactive
Prdm9 (PR domain containing 9) | SID315477796 | -1.07 | enough cells in well | inactive
Rxrg (retinoid X receptor gamma) | SID315469067 | 1.24 | enough cells in well | inactive
Abcg1 (ATP binding cassette subfamily G member 1) | SID315465233 | 1.54 | enough cells in well | inactive
Apba3 (amyloid beta precursor protein binding family A member 3) | SID315471742 | -0.24 | enough cells in well | inactive
Alox5 (arachidonate 5-lipoxygenase) | SID315465396 | -0.18 | enough cells in well | inactive
Cnr2 (cannabinoid receptor 2) | SID315466036 | 1.04 | enough cells in well | inactive
Sh3rf2 (SH3 domain containing ring finger 2) | SID315480821 | 0.74 | enough cells in well | inactive
Cinp (cyclin dependent kinase 2 interacting protein) | SID315472918 | -1.39 | enough cells in well | active
Cinp (cyclin dependent kinase 2 interacting protein) | SID315472918 | – | fewer than 50 cells per well; well left out of calls | inactive
Adgre4 (adhesion G protein-coupled receptor E4) | SID315470987 | -0.51 | enough cells in well | inactive
Nudt6 (nudix hydrolase 6) | SID315478693 | 0.59 | enough cells in well | inactive
Ate1 (arginyltransferase 1) | SID315465532 | 0.36 | enough cells in well | inactive
Deup1 (deuterosome assembly protein 1) | SID315479213 | – | fewer than 50 cells per well; well left out of calls | inactive
Cyp4f16 (cytochrome P450, family 4, subfamily f, polypeptide 16) | SID315473977 | -0.75 | enough cells in well | inactive
Mall (mal, T cell differentiation protein-like) | SID315478640 | -0.97 | enough cells in well | inactive
Sppl2c (signal peptide peptidase 2C) | SID315479377 | 1.94 | enough cells in well | inactive
Lrrfip1 (leucine rich repeat (in FLII) interacting protein 1) | SID315467765 | -0.09 | enough cells in well | inactive
Reep4 (receptor accessory protein 4) | SID315474574 | – | fewer than 50 cells per well; well left out of calls | inactive
Ugdh (UDP-glucose dehydrogenase) | SID315469927 | 1.75 | enough cells in well | inactive
Sash1 (SAM and SH3 domain containing 1) | SID315473975 | 0.36 | enough cells in well | inactive
Ccdc73 (coiled-coil domain containing 73) | SID315477708 | – | fewer than 50 cells per well; well left out of calls | inactive
Or51r1 (olfactory receptor family 51 subfamily R member 1) | SID315480702 | -1.76 | enough cells in well | active
Or5t15 (olfactory receptor family 5 subfamily T member 15) | SID315480375 | 0.32 | enough cells in well | inactive
Ecrg4 (ECRG4 augurin precursor) | SID315475644 | 1.74 | enough cells in well | inactive
Tatdn1 (TatD DNase domain containing 1) | SID315473870 | -0.38 | enough cells in well | inactive
Ddx39b (DEAD box helicase 39b) | SID315471107 | -0.93 | enough cells in well | inactive
Arx (aristaless related homeobox) | SID315465520 | -1.27 | enough cells in well | inactive
Mecp2 (methyl CpG binding protein 2) | SID315467889 | -0.99 | enough cells in well | inactive
Inhbb (inhibin beta-B) | SID315467476 | 0.18 | enough cells in well | inactive
Or4a47 (olfactory receptor family 4 subfamily A member 47) | SID315480595 | 0.8 | enough cells in well | inactive
Lilrb4b | SID315466977 | -1.01 | enough cells in well | inactive
Nr5a1 (nuclear receptor subfamily 5, group A, member 1) | SID315470398 | 0.12 | enough cells in well | inactive
Zc2hc1a (zinc finger, C2HC-type containing 1A) | SID315472958 | 0.89 | enough cells in well | inactive
Zfp97 (zinc finger protein 97) | SID315470140 | -0.24 | enough cells in well | inactive
Pik3r2 (phosphoinositide-3-kinase regulatory subunit 2) | SID315468513 | 1.75 | enough cells in well | inactive
Bub1 (BUB1, mitotic checkpoint serine/threonine kinase) | SID315465685 | -0.57 | enough cells in well | inactive
Obp1a (odorant binding protein IA) | SID315468282 | -0.53 | enough cells in well | inactive
H1f0 (H1.0 linker histone) | SID315467099 | -0.49 | enough cells in well | inactive
Thbs1 (thrombospondin 1) | SID315469705 | -0.17 | enough cells in well | inactive
Itgav (integrin alpha V) | SID315467513 | 0.91 | enough cells in well | inactive
Itga8 (integrin alpha 8) | SID315479557 | -0.11 | enough cells in well | inactive
Zfp606 (zinc finger protein 606) | SID315472981 | – | fewer than 50 cells per well; well left out of calls | inactive
Spty2d1 (SPT2 chromatin protein domain containing 1) | SID315476293 | -0.83 | enough cells in well | inactive
Ms4a6b (membrane-spanning 4-domains, subfamily A, member 6B) | SID315473896 | -0.03 | enough cells in well | inactive
Fbxo31 (F-box protein 31) | SID315475314 | -0.89 | enough cells in well | inactive
Ski (ski proto-oncogene) | SID315469265 | -0.12 | enough cells in well | inactive
Or9i2 (olfactory receptor family 9 subfamily I member 2) | SID315480283 | 0.83 | enough cells in well | inactive
Fam135b (family with sequence similarity 135, member B) | SID315474026 | 1.39 | enough cells in well | inactive
Fam135b (family with sequence similarity 135, member B) | SID315474027 | -1.29 | enough cells in well | inactive
Tlr12 (toll-like receptor 12) | SID315481836 | – | fewer than 50 cells per well; well left out of calls | inactive
Lyn (Lyn proto-oncogene, Src family tyrosine kinase) | SID315467793 | -1.26 | enough cells in well | inactive

Not a retest: 7 of the entries above.
gene symbol | PubChem SID | Tnf reporter robust z-score | fewer than 50 cells in well | Outcome
Mecp2 (methyl CpG binding protein 2) | SID315467889 | -0.99 | enough cells in well | inactive
Inhbb (inhibin beta-B) | SID315467476 | 0.18 | enough cells in well | inactive
Or4a47 (olfactory receptor family 4 subfamily A member 47) | SID315480595 | 0.8 | enough cells in well | inactive
Lilrb4b | SID315466977 | -1.01 | enough cells in well | inactive
Nr5a1 (nuclear receptor subfamily 5, group A, member 1) | SID315470398 | 0.12 | enough cells in well | inactive
Zc2hc1a (zinc finger, C2HC-type containing 1A) | SID315472958 | 0.89 | enough cells in well | inactive
Zfp97 (zinc finger protein 97) | SID315470140 | -0.24 | enough cells in well | inactive
